In this experiment the target is Focal adhesion kinase 1 (human (endogenous in HCT-116)) (UniProt Q05397). The experiment in a line: affinity purification with mass spectrometry; anti-FAK polyclonal antibody and Protein A/G agarose on 1.5 mg HCT-116 total cell lysate, cells untreated (regular IP) or stimulated with 10 ng/ml EGF for 30 min; rabbit IgG as control; 1D SDS-PAGE, in-gel trypsin digestion, nano-LC-MS/MS; the proteins of Table 2 were found only with EGF ….

Amino acid sequences for entries named in this document (tags omitted).
UniProt Q05397: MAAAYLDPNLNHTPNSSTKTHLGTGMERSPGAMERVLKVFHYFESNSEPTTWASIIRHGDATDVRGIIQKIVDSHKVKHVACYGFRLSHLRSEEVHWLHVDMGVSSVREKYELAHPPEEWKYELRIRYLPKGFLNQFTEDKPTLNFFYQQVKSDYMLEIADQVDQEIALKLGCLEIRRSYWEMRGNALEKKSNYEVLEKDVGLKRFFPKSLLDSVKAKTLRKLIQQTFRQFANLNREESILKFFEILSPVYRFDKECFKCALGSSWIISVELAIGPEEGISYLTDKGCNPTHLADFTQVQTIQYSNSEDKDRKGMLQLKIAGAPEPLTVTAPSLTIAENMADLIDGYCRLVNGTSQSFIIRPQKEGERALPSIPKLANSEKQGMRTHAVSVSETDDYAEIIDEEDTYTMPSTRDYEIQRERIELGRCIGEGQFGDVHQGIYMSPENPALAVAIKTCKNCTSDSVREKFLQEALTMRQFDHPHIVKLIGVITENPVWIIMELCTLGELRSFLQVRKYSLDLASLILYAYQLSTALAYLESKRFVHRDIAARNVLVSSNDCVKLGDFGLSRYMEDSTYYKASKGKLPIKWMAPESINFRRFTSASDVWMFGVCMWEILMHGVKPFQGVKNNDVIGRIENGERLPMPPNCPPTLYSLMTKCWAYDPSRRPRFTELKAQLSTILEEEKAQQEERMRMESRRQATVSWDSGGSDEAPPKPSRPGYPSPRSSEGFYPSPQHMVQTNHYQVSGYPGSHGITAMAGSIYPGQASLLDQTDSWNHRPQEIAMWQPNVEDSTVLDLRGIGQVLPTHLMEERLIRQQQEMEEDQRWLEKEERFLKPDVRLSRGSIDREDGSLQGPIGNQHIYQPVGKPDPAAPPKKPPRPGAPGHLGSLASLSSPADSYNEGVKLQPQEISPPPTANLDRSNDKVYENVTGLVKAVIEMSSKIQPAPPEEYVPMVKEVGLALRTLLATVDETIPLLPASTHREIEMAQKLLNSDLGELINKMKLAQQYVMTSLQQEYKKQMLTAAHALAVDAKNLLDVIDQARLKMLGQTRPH

This passage reports binding results from paper PMC6733923.

These are yes or no findings as the source states them, for the method shown. Binding seen in cells or lysates may run through a third protein. Here binding means that the protein was enriched with, or labelled near, the bait; the list need not be complete.

B1: cingulin (protein, UniProt Q9P2M7 1-1203)
chain: MEQAPNMAEPRGPVDHGVQIRFITEPVSGAEMGTLRRGGRRPAKDARASTYGVAVRVQGIAGQPFVVLNSGEKGGDSFGVQIKGANDQGASGALSSDLELPENPYSQVKGFPAPSQSSTSDEEPGAYWNGKLLRSHSQASLAGPGPVDPSNRSNSMLELAPKVASPGSTIDTAPLSSVDSLINKFDSQLGGQARGRTGRRTRMLPPEQRKRSKSLDSRLPRDTFEERERQSTNHWTSSTKYDNHVGTSKQPAQSQNLSPLSGFSRSRQTQDWVLQSFEEPRRSAQDPTMLQFKSTPDLLRDQQEAAPPGSVDHMKATIYGILREGSSESETSVRRKVSLVLEKMQPLVMVSSGSTKAVAGQGELTRKVEELQRKLDEEVKKRQKLEPSQVGLERQLEEKTEECSRLQELLERRKGEAQQSNKELQNMKRLLDQGEDLRHGLETQVMELQNKLKHVQGPEPAKEVLLKDLLETRELLEEVLEGKQRVEEQLRLRERELTALKGALKEEVASRDQEVEHVRQQYQRDTEQLRRSMQDATQDHAVLEAERQKMSALVRGLQRELEETSEETGHWQSMFQKNKEDLRATKQELLQLRMEKEEMEEELGEKIEVLQRELEQARASAGDTRQVEVLKKELLRTQEELKELQAERQSQEVAGRHRDRELEKQLAVLRVEADRGRELEEQNLQLQKTLQQLRQDCEEASKAKMVAEAEATVLGQRRAAVETTLRETQEENDEFRRRILGLEQQLKETRGLVDGGEAVEARLRDKLQRLEAEKQQLEEALNASQEEEGSLAAAKRALEARLEEAQRGLARLGQEQQTLNRALEEEGKQREVLRRGKAELEEQKRLLDRTVDRLNKELEKIGEDSKQALQQLQAQLEDYKEKARREVADAQRQAKDWASEAEKTSGGLSRLQDEIQRLRQALQASQAERDTARLDKELLAQRLQGLEQEAENKKRSQDDRARQLKGLEEKVSRLETELDEEKNTVELLTDRVNRGRDQVDQLRTELMQERSARQDLECDKISLERQNKDLKTRLASSEGFQKPSASLSQLESQNQLLQERLQAEEREKTVLQSTNRKLERKVKELSIQIEDERQHVNDQKDQLSLRVKALKRQVDEAEEEIERLDGLRKKAQREVEEQHEVNEQLQARIKSLEKDSWRKASRSAAESALKNEGLSSDEEFDSVYDPSSIASLLTESNLQTSSC
As to B1, the binding entry is recorded as “binds”.

B2: Coiled-coil domain-containing protein 146 (protein, UniProt Q8IYE0-1 1-955)
chain: MEDSSTDTEKEEEEEKDEKDQEPIYAIVPTINIQDERFVDLSETPAFIFLHELHAMGKLPGTRMAALKAKYTLLHDAVMSTQESEVQLLQNAKRFTEQIQQQQFHLQQADNFPEAFSTEVSKMREQLLKYQNEYNAVKEREFHNQYRLNSLKEEKIIIVKEFEKITKPGEMEKKMKILRESTEELRKEIMQKKLEIKNLREDLASKQKQLLKEQKELEELLGHQVVLKDEVAHHQTIPVQIGKEIEKITRKKVEMEKKKIVLEQEVKTLNDSLKKVENKVSAIVDEKENVIKEVEGKRALLEIKEREHNQLVKLLELARENEATSLTERGILDLNLRNSLIDKQNYHDELSRKQREKERDFRNLRKMELLLKVSWDALRQTQALHQRLLLEMEAIPKDDSTLSERRRELHKEVEVAKRNLAQQKIISEMESKLVEQQLAEENKLLKEQENMKELVVNLLRMTQIKIDEKEQKSKDFLKAQQKYTNIVKEMKAKDLEIRIHKKKKCEIYRRLREFAKLYDTIRNERNKFVNLLHKAHQKVNEIKERHKMSLNELEILRNSAVSQERKLQNSMLKHANNVTIRESMQNDVRKIVSKLQEMKEKKEAQLNNIDRLANTITMIEEEMVQLRKRYEKAVQHRNESGVQLIEREEEICIFYEKINIQEKMKLNGEIEIHLLEEKIQFLKMKIAEKQRQICVTQKLLPAKRSLDADLAVLQIQFSQCTDRIKDLEKQFVKPDGENRARFLPGKDLTEKEMIQKLDKLELQLAKKEEKLLEKDFIYEQVSRLTDRLCSKTQGCKQDTLLLAKKMNGYQRRIKNATEKMMALVAELSMKQALTIELQKEVREKEDFIFTCNSRIEKGLPLNKEIEKEWLKVLRDEEMHALAIAEKSQEFLEADNRQLPNGVYTTAEQRPNAYIPEADATLPLPKPYGALAPFKPSEPGANMRHIRKPVIKPVEI
Regarding B2, the binding result was “binds”.

B3: Transmembrane protein 43 (protein, UniProt Q9BTV4 1-400)
chain: MAANYSSTSTRREHVKVKTSSQPGFLERLSETSGGMFVGLMAFLLSFYLIFTNEGRALKTATSLAEGLSLVVSPDSIHSVAPENEGRLVHIIGALRTSKLLSDPNYGVHLPAVKLRRHVEMYQWVETEESREYTEDGQVKKETRYSYNTEWRSEIINSKNFDREIGHKNPSAMAVESFMATAPFVQIGRFFLSSGLIDKVDNFKSLSLSKLEDPHVDIIRRGDFFYHSENPKYPEVGDLRVSFSYAGLSGDDPDLGPAHVVTVIARQRGDQLVPFSTKSGDTLLLLHHGDFSAEEVFHRELRSNSMKTWGLRAAGWMAMFMGLNLMTRILYTLVDWFPVFRDLVNIGLKAFAFCVATSLTLLTVAAGWLFYRPLWALLIAGLALVPILVARTRVPAKKLE
Turning to B3, the binding entry is given as “binds”.

B4: espin (protein, UniProt B1AK53-1 1-854)
chain: MALEQALQAARQGELDVLRSLHAAGLLGPSLRDPLDALPVHHAARAGKLHCLRFLVEEAALPAAARARNGATPAHDASATGHLACLQWLLSQGGCRVQDKDNSGATVLHLAARFGHPEVVNWLLHHGGGDPTAATDMGALPIHYAAAKGDFPSLRLLVEHYPEGVNAQTKNGATPLYLACQEGHLEVTQYLVQECGADPHARAHDGMTPLHAAAQMGHSPVIVWLVSCTDVSLSEQDKDGATAMHFAASRGHTKVLSWLLLHGGEISADLWGGTPLHDAAENGELECCQILVVNGAELDVRDRDGYTAADLSDFNGHSHCTRYLRTVENLSVEHRVLSRDPSAELEAKQPDSGMSSPNTTVSVQPLNFDLSSPTSTLSNYDSCSSSHSSIKGQHPPCGLSSARAADIQSYMDMLNPELGLPRGTIGKPTPPPPPPSFPPPPPPPGTQLPPPPPGYPAPKPPVGPQAADIYMQTKNKLRHVETEALKKELSSCDGHDGLRRQDSSRKPRAFSKQPSTGDYYRQLGRCPGETLAARPGMAHSEEVRARQPARAGCPRLGPAARGSLEGPSAPPQAALLPGNHVPNGCAADPKASRELPPPPPPPPPPLPEAASSPPPAPPLPLESAGPGCGQRRSSSSTGSTKSFNMMSPTGDNSELLAEIKAGKSLKPTPQSKGLTTVFSGIGQPAFQPDSPLPSVSPALSPVRSPTPPAAGFQPLLNGSLVPVPPTTPAPGVQLDVEALIPTHDEQGRPIPEWKRQVMVRKMQLKMQEEEEQRRKEEEEEARLASMPAWRRDLLRKKLEEEREQKRKEEERQKQEELRREKEQSEKLRTLGYDESKLAPWQRQVILKKGDIAKY
Consider B4, for which the binding result is recorded as “binds”.

B5: Unconventional myosin-Id (protein, UniProt O94832 1-1006)
chain: MAEQESLEFGKADFVLMDTVSMPEFMANLRLRFEKGRIYTFIGEVVVSVNPYKLLNIYGRDTIEQYKGRELYERPPHLFAIADAAYKAMKRRSKDTCIVISGESGAGKTEASKYIMQYIAAITNPSQRAEVERVKNMLLKSNCVLEAFGNAKTNRNDNSSRFGKYMDINFDFKGDPIGGHINNYLLEKSRVIVQQPGERSFHSFYQLLQGGSEQMLRSLHLQKSLSSYNYIHVGAQLKSSINDAAEFRVVADAMKVIGFKPEEIQTVYKILAAILHLGNLKFVVDGDTPLIENGKVVSIIAELLSTKTDMVEKALLYRTVATGRDIIDKQHTEQEASYGRDAFAKAIYERLFCWIVTRINDIIEVKNYDTTIHGKNTVIGVLDIYGFEIFDNNSFEQFCINYCNEKLQQLFIQLVLKQEQEEYQREGIPWKHIDYFNNQIIVDLVEQQHKGIIAILDDACMNVGKVTDEMFLEALNSKLGKHAHFSSRKLCASDKILEFDRDFRIRHYAGDVVYSVIGFIDKNKDTLFQDFKRLMYNSSNPVLKNMWPEGKLSITEVTKRPLTAATLFKNSMIALVDNLASKEPYYVRCIKPNDKKSPQIFDDERCRHQVEYLGLLENVRVRRAGFAFRQTYEKFLHRYKMISEFTWPNHDLPSDKEAVKKLIERCGFQDDVAYGKTKIFIRTPRTLFTLEELRAQMLIRIVLFLQKVWRGTLARMRYKRTKAALTIIRYYRRYKVKSYIHEVARRFHGVKTMRDYGKHVKWPSPPKVLRRFEEALQTIFNRWRASQLIKSIPASDLPQVRAKVAAVEMLKGQRADLGLQRAWEGNYLASKPDTPQTSGTFVPVANELKRKDKYMNVLFSCHVRKVNRFSKVEDRAIFVTDRHLYKMDPTKQYKVMKTIPLYNLTGLSVSNGKDQLVVFHTKDNKDLIVCLFSKQPTHESRIGELVGVLVNHFKSEKRHLQVNVTNPVQCSLHGKKCTVSVETRLNQPQPDFTKNRSGFILSVPGN
Turning to B5, the binding entry is reported as “binds”.

B6: Plastin-3 (protein, UniProt P13797 1-630)
chain: MDEMATTQISKDELDELKEAFAKVDLNSNGFICDYELHELFKEANMPLPGYKVREIIQKLMLDGDRNKDGKISFDEFVYIFQEVKSSDIAKTFRKAINRKEGICALGGTSELSSEGTQHSYSEEEKYAFVNWINKALENDPDCRHVIPMNPNTDDLFKAVGDGIVLCKMINLSVPDTIDERAINKKKLTPFIIQENLNLALNSASAIGCHVVNIGAEDLRAGKPHLVLGLLWQIIKIGLFADIELSRNEALAALLRDGETLEELMKLSPEELLLRWANFHLENSGWQKINNFSADIKDSKAYFHLLNQIAPKGQKEGEPRIDINMSGFNETDDLKRAESMLQQADKLGCRQFVTPADVVSGNPKLNLAFVANLFNKYPALTKPENQDIDWTLLEGETREERTFRNWMNSLGVNPHVNHLYADLQDALVILQLYERIKVPVDWSKVNKPPYPKLGANMKKLENCNYAVELGKHPAKFSLVGIGGQDLNDGNQTLTLALVWQLMRRYTLNVLEDLGDGQKANDDIIVNWVNRTLSEAGKSTSIQSFKDKTISSSLAVVDLIDAIQPGCINYDLVKSGNLTEDDKHNNAKYAVSMARRIGARVYALPEDLVEVKPKMVMTVFACLMGRGMKRV
Take B6: the binding entry is recorded as “binds”.
